Laboratory results published in patent publication US20100159449A1, “Continuous Assay Method for Measuring Receptor- and Ion Channel-Mediated Calcium Response and Subsequent Gene Expression” (NOACELL SCIENCE CO., LTD., priority 2006, published 2010).
For at least one compound, name, drawing or mass did not settle the structure.

Tested on: adenylate-cyclase
Experiment: forskolin-stimulated cAMP synthesis measured with CRE Renilla luciferase in CHO cells, comparison of substrates
Format: cell-based
Details: forskolin 10^-6 to 10^-12 M, six hours later (FIG. 10)

## C=C[C@@]1(C)CC(=O)[C@]2(O)[C@@]3(C)[C@@H](O)CCC(C)(C)[C@@H]3[C@H](O)[C@H](OC(C)=O)[C@@]2(C)O1 [forskolin]
EnduRen as substrate
  cAMP induction brought about by forskolin (Renilla luciferase): could be detected
Wildtype coelenterazine as substrate
  cAMP induction brought about by forskolin (Renilla luciferase): detection was not possible
